For part of these data: Where cells or extracts were used, other partners may take part. For part of these data: Negatives hold for the conditions tested. For part of these data: Weaker means in comparison with the reference protein, sequence or condition of that experiment. For part of these data: Construct, isoform or probe ends are uncertain for at least one entry. For part of these data: Where a protein sequence is shown, tags need not be part of it.

By UniProt entry, the sequences of proteins in these tests, tags left out. Residues count along the entry.
UniProt P11474, 1-173: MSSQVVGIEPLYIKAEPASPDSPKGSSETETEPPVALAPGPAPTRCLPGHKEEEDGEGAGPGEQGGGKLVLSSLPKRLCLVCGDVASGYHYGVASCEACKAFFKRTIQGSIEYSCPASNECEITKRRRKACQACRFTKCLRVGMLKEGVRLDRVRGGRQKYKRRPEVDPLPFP
UniProt P11474, 76-423: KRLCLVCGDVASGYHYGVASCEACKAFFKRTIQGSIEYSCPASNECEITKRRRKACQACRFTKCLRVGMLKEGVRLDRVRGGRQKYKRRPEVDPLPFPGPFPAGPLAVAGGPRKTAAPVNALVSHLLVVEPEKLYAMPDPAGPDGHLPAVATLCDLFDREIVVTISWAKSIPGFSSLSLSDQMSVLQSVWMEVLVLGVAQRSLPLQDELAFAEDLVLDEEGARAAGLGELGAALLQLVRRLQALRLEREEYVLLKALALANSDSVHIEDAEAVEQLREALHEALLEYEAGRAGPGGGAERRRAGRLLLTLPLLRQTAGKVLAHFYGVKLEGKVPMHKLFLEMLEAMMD
UniProt P11474, whole entry L413A/L418A: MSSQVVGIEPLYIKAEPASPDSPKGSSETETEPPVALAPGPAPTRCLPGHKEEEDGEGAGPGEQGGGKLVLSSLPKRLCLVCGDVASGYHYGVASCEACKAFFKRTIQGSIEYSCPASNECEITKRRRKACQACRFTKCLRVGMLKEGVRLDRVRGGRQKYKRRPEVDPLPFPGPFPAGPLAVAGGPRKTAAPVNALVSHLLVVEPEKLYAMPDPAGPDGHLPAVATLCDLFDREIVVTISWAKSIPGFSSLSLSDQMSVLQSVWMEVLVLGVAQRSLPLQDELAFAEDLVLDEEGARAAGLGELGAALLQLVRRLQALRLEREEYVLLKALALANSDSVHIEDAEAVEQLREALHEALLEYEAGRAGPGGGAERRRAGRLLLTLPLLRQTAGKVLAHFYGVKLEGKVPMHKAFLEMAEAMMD
UniProt P11474, whole entry E97G/A98S/A101V: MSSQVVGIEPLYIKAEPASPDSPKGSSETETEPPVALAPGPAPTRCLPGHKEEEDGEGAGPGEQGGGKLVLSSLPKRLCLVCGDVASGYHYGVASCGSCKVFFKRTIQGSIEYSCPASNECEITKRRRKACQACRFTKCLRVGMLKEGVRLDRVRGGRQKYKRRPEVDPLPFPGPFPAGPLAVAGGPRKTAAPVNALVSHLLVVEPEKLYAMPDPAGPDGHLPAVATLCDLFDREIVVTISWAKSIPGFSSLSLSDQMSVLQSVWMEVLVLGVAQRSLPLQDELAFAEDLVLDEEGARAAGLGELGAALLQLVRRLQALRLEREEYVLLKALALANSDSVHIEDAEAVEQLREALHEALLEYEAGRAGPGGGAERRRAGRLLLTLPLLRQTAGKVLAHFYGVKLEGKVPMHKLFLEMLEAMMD
UniProt P03372, whole entry: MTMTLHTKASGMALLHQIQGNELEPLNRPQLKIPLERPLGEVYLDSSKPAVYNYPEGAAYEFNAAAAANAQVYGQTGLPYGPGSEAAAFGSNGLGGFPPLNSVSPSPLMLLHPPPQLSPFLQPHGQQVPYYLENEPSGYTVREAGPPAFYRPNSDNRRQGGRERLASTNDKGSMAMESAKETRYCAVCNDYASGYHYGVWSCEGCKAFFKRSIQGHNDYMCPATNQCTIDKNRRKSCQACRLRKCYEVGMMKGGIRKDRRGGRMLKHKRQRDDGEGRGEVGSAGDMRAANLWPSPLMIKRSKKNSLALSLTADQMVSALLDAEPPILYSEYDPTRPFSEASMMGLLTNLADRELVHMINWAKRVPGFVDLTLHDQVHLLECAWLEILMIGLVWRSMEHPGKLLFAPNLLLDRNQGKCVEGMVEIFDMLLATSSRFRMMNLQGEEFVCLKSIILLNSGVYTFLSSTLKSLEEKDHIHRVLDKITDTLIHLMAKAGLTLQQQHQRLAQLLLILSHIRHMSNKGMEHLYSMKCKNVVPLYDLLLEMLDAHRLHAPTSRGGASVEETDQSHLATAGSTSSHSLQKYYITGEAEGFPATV

Series [1] concerns the target GST-ERRα1 (Homo sapiens) (UniProt P11474). The series can be described thus: competition with a labelled probe. As to conditions: sequence assigned from listing, purified recombinant protein, protein details: N-terminal GST, E. coli.
The target in another series is T1, COUP-TF1 (UniProt P10589).
T1 sequence (looked up, limits assumed): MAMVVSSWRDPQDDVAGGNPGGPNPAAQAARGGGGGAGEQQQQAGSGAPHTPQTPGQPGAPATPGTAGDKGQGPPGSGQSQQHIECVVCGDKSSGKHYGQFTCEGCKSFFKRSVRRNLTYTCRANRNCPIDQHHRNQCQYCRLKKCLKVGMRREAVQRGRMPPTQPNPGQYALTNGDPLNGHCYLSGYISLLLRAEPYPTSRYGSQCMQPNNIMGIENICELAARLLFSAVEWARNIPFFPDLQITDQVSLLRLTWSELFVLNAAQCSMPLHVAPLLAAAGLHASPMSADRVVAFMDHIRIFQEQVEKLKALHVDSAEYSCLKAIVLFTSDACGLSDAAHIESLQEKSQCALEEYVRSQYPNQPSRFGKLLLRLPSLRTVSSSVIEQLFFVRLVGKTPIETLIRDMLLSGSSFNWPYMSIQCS
As to the kind of experiment: EMSA. Particulars: sequence assigned from listing; protein in a lysate after overexpression; protein details: COS whole-cell extract; label: 32P.

The target in series [2] is ERRα1 (estrogen-related receptor alpha 1, NR3B1) (Homo sapiens) (UniProt P11474). As to the kind of experiment: EMSA. Particulars: protein in a lysate after overexpression, label: 32P. For orientation: Mobility shift assays separate free from complexed probe on a gel.
Series [3] has as its target ERα (estrogen receptor alpha) (Homo sapiens) (UniProt P03372). As to the kind of experiment: EMSA. As to conditions: protein in a lysate after overexpression, protein details: COS / COS-M6 whole-cell extract.
For series [4], the target named is ERRα1 1-173 (Homo sapiens) (UniProt P11474). As to the kind of experiment: EMSA. As to conditions: protein in a lysate after overexpression; protein details: COS-M6 whole-cell extract; label: 32P.
Series [5] addresses ERRα1 76-423 (Homo sapiens) (UniProt P11474). As to the kind of experiment: EMSA. Particulars: protein in a lysate after overexpression; protein details: COS-M6 whole-cell extract; label: 32P.
Series [6] addresses ERRα1 L413A/L418A (Homo sapiens) (UniProt P11474). The series can be described thus: EMSA. Particulars: protein in a lysate after overexpression; protein details: COS-M6 whole-cell extract; label: 32P.
The target of series [7] is ERRα1 P-box E97G/A98S/A101V (Homo sapiens) (UniProt P11474). The series can be described thus: EMSA. As to conditions: protein in a lysate after overexpression; protein details: COS-M6 whole-cell extract; label: 32P.
Series [8] has as its target ERRα1 (estrogen-related receptor alpha 1, NR3B1) (Homo sapiens) (UniProt P11474). The series can be described thus: activity in cells. Particulars: MCF-7, 3xERE-TK-luc reporter; protein in a lysate after overexpression; only the site is given.
The target of series [9] is GST-ERRα1 (Homo sapiens) (UniProt P11474). The series can be described thus: footprint. Particulars: DNase I protection of one half-site; sequence assigned from listing; purified recombinant protein; protein details: N-terminal GST, E. coli.

Turning to “AGCTAACTAAAGGTCACAAGCTGCTTCAGATGATC (double strand) [Prolactin D]”, the binding result with GST-ERRα1 (Homo sapiens) [1] (bound very well) is recorded as “binds”.
Take “AGCTTCGAGGAGATCACAGTGATCTGGAGCGGATC (double strand) [Vitellogenin ERE core mutant]”: in the series with GST-ERRα1 (Homo sapiens) [1] (core mutant, complete loss, variant of Vitellogenin ERE), the binding result is “no binding”.
In the case of “AGCTTCGAGGAGGTCACAGTGACCTGGAGCGGATC (double strand) [Vitellogenin ERE]”, the binding result with COUP-TF1 was “no binding”; in [2], “binds”; in series [3] (more efficient than ERRα, sequence assigned from listing, label: …), “binds”; in the series with GST-ERRα1 (Homo sapiens) [1] (moderate, label: 32P), “binds”.
Consider “CCTGCAAGGTCACGGTGGCCACCCG (double strand) [pS2 ERE probe]”, for which the binding result in series [2] (higher affinity than ERα) is on record as “binds”; in series [3] (lower affinity than ERRα, label: 32P), “binds more weakly”.
“CGTTAAGGTTCCAAGGTCATGGACTG (double strand) [SV40 +55 UP mutant]”: in the series with GST-ERRα1 (Homo sapiens) [1] (competed very well, variant of SV40 +55 site WT), the binding result is “binds”.
For “GTTAAGGTTCGTAGGTCATGGA (double strand) [SV40 +55 site WT]”, in the series with GST-ERRα1 (Homo sapiens) [1] (competed moderately, also DNase I and hydroxyl radical footprint), the binding result is given as “binds”.
In the case of “TAAGCTTAGGTCACAGTGACCTAAGCTTA (double strand) [Consensus palindromic ERE]”, the binding result in series [2] was “binds”; in series [4], “binds”; in [5], “binds”; in [6] it was “binds”; in [7], “no binding”; in [3] (supershifted by H222, 100 mM NaCl, label: 32P), “binds”. For the same sequence, the “activity on this sequence” value in series [8] is on record as “active”.
As to “TCAGAGGTTATTTCAGGCCATGGT (double strand) [SV40 +1 site WT]”, in the series with GST-ERRα1 (Homo sapiens) [9], the binding result is “binds”.

Source of the values: patent US20030152959.
